Measurements from patent US7925520B2, “Methods of predicting dose of drug and program for predicting dose of drug” (priority 2007, dated 2011).

Assays:
[1] = Prediction of Log(M*/C) from measured C and R by Equation 2; parameters: species or system rat; settings: M* determined as a function of measured C and R values (Eq. 2)
[2] = Measurement 1: migration M of drug ion to skin with membrane type iontophoresis device; type: in vitro ADME, rat
From the text: In some embodiments, a working side assembly 10 of the device 1 may include a working side electrode (negative electrode) 11; an electrolyte solution holding portion 12 for holding a physiological salt solution; a cation exchange membrane 13 on the front surface side of the electrolyte solution holding portion; a drug solution holding portion 14 for holding a drug solution on the front surface side of the cation exchange membrane 13; and an anion exchange membrane 15 on the front surface side of the drug solution holding portion.
In some embodiments, a non-working side assembly 20 of the device 1 may include a non-working side electrode (positive electrode) 21; an electrolyte solution holding portion 22 for holding a physiological salt solution; an anion exchange membrane 23 on the front surface side of the electrolyte solution holding portion 22; an electrolyte solution holding portion 24 for holding a physiological salt solution on the front surface side of the anion exchange membrane 23; and a cation exchange membrane 25 on the front surface side of the electrolyte solution holding portion 24. […]
The above measurement was performed 3 times for each sample, and the average value of the measurements was determined as the migration M.

COc1ccc2cc([C@H](C)C(=O)O)ccc2c1 [Naproxen]
Predicted Log(M*/C) [1]: −0.85
Log(M/C) ([2]; from measured M and C): −0.91
LogM ([2]; log of migration M, rat back skin, 6.25 mM, 0.94 mA, 60 minutes): 2.79
